In paper PMC9657053:
Results are given in words; binding and its absence hold for the method and conditions named. Binding seen in cells or lysates may run through a third protein. Some entries that bind do so weakly or less than the wild type.

Target: T1, snail family transcriptional repressor 2 (SNAI2) (human (endogenous in SW-1990)) (UniProt O43623)
T1 sequence: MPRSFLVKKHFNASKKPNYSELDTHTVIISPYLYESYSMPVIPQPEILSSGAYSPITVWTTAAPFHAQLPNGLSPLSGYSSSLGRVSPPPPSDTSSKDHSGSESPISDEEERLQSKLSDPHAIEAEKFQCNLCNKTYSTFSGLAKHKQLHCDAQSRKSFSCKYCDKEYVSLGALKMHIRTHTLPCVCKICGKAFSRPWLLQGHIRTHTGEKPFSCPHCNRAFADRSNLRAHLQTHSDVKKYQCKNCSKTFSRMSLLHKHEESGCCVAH
Test: co-IP; SW-1990 cell lysate, 1.0 mg total protein incubated with anti-IgG, anti-SNAI2 and anti-CDCA8 at 4 °C overnight; agarose beads 2 h at 4 °C; western blotting

binding: binds
B1: Cell division cycle associated 8 (CDCA8) (protein, UniProt Q53HL2 1-280)
chain: MAPRKGSSRVAKTNSLRRRKLASFLKDFDREVEIRIKQIESDRQNLLKEVDNLYNIEILRLPKALREMNWLDYFALGGNKQALEEAATADLDITEINKLTAEAIQTPLKSAKTRKVIQVDEMIVEEEEEEENERKNLQTARVKRCPPSKKRTQSIQGKGKGKRSSRANTVTPAVGRLEVSMVKPTPGLTPRFDSRVFKTPGLRTPAAGERIYNISGNGSPLADSKEIFLTVPVGGGESLRLLASDLQRHSIAQLDPEALGNIKKLSNRLAQICSSIRTHK
